{"sequences": {"note": "Sequences of proteins named here, by UniProt entry; tags and fusion partners are left off. A change or cut given only in a name is not applied to a line headed by its entry.", "UniProt Q9C0B0": "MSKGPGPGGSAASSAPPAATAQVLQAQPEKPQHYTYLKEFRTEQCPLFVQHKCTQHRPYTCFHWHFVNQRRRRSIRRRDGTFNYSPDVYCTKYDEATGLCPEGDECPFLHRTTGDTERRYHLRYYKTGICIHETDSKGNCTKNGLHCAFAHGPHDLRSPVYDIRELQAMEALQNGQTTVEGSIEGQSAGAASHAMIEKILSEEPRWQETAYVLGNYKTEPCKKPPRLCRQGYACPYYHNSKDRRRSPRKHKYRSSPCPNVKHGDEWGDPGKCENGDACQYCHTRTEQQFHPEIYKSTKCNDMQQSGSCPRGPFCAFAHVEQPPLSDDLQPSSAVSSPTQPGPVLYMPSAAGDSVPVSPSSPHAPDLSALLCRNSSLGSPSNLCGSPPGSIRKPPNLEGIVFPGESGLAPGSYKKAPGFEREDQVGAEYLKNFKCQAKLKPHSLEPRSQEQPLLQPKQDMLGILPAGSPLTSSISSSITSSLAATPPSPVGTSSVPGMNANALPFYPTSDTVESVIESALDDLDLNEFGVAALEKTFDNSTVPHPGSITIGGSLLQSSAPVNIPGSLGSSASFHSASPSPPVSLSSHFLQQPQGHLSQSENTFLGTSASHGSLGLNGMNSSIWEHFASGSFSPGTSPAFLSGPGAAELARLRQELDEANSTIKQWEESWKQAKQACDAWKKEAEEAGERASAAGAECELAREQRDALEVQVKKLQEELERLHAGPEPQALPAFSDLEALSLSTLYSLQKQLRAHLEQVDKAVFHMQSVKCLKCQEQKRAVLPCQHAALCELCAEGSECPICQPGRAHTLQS", "UniProt Q9H3P7": "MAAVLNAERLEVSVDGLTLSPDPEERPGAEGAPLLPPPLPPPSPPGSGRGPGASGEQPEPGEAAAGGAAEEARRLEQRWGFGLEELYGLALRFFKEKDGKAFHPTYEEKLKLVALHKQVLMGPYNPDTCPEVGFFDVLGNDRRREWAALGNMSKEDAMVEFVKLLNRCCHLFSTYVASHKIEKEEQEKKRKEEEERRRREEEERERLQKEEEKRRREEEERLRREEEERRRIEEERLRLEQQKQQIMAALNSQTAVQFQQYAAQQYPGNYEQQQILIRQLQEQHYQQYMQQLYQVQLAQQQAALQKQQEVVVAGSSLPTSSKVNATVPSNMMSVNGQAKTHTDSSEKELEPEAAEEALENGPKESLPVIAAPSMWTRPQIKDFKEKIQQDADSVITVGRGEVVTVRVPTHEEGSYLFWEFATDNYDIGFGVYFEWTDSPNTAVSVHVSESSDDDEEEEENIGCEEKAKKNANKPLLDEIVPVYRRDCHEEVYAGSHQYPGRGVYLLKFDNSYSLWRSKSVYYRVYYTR", "UniProt Q9BWT3": "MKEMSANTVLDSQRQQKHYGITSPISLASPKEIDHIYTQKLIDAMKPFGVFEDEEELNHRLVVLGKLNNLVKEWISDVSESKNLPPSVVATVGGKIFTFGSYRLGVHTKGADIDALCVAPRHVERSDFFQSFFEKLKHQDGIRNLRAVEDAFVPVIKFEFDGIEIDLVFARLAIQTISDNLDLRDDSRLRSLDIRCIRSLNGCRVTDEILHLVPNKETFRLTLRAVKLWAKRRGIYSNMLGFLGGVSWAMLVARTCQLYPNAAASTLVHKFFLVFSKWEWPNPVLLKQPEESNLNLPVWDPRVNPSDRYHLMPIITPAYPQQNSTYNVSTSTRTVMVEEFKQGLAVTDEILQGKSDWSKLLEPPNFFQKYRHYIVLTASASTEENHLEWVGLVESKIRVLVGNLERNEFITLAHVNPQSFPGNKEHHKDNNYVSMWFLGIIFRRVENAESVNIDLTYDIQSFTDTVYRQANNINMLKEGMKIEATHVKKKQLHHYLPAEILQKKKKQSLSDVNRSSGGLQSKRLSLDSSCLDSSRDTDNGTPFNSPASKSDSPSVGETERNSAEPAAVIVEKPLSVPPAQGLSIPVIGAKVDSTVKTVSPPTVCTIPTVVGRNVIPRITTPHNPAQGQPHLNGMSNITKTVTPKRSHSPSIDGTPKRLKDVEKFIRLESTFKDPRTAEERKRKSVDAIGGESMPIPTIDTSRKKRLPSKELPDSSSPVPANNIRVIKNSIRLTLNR", "UniProt Q9GZP4": "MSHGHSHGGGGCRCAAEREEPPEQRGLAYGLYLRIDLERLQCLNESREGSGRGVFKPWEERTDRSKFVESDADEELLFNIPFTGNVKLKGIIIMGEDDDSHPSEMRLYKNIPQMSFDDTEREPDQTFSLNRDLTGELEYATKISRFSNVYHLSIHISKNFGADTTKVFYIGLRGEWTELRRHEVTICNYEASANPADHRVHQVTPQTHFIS", "UniProt Q9H0G5": "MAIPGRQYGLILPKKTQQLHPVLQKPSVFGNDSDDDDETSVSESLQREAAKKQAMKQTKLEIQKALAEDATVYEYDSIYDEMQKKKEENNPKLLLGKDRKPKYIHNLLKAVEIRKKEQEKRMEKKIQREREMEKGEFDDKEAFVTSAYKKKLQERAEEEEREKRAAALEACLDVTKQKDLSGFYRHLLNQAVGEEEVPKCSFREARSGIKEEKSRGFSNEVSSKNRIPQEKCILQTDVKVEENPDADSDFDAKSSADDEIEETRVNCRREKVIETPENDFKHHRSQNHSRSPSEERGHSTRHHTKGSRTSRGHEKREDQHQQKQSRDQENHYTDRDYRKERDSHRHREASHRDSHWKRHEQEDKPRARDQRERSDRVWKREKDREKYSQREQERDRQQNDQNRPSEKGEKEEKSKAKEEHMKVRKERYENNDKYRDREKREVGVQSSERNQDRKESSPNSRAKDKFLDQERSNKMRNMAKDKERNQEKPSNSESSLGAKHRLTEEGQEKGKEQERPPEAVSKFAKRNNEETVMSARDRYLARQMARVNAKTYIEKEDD", "UniProt Q9H0F6": "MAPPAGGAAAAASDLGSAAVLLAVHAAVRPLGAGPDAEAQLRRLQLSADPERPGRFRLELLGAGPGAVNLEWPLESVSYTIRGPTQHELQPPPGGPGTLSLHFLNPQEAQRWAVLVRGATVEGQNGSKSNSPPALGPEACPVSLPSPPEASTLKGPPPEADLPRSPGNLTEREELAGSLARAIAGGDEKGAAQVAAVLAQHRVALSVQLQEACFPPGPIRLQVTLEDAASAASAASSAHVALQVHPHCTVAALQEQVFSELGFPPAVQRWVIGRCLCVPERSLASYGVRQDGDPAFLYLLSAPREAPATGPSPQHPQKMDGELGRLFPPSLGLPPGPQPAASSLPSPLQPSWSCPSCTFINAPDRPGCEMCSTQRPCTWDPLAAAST", "UniProt Q9GZV4": "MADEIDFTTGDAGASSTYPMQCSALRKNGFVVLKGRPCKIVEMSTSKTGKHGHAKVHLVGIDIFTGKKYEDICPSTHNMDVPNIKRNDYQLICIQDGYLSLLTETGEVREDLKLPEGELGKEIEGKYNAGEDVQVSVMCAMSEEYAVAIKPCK", "UniProt Q9H267": "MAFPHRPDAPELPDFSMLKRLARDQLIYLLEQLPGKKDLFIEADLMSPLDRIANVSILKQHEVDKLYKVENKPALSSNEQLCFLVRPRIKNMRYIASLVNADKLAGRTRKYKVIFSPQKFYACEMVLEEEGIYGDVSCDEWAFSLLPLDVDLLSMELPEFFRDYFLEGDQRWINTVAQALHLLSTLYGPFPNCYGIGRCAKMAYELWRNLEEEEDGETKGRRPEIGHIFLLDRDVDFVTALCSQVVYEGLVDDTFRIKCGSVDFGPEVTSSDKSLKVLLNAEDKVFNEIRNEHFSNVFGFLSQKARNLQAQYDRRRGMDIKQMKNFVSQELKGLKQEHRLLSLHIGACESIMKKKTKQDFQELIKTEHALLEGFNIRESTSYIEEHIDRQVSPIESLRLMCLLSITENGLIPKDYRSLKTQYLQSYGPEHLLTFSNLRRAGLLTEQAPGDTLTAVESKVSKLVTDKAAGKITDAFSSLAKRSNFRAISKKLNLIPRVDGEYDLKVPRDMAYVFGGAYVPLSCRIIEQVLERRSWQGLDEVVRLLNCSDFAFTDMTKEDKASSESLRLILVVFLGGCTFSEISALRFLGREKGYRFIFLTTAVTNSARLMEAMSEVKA", "UniProt Q9H3Q1": "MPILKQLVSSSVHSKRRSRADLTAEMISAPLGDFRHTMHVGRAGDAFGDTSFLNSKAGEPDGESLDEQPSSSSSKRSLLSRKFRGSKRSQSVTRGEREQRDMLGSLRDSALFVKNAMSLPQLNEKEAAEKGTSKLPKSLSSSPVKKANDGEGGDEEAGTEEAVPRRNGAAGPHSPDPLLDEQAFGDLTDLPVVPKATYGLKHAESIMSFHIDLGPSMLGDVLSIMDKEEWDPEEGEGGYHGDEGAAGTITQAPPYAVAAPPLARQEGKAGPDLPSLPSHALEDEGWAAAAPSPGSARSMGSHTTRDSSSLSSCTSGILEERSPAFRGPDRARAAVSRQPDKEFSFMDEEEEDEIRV", "UniProt Q9C0C9": "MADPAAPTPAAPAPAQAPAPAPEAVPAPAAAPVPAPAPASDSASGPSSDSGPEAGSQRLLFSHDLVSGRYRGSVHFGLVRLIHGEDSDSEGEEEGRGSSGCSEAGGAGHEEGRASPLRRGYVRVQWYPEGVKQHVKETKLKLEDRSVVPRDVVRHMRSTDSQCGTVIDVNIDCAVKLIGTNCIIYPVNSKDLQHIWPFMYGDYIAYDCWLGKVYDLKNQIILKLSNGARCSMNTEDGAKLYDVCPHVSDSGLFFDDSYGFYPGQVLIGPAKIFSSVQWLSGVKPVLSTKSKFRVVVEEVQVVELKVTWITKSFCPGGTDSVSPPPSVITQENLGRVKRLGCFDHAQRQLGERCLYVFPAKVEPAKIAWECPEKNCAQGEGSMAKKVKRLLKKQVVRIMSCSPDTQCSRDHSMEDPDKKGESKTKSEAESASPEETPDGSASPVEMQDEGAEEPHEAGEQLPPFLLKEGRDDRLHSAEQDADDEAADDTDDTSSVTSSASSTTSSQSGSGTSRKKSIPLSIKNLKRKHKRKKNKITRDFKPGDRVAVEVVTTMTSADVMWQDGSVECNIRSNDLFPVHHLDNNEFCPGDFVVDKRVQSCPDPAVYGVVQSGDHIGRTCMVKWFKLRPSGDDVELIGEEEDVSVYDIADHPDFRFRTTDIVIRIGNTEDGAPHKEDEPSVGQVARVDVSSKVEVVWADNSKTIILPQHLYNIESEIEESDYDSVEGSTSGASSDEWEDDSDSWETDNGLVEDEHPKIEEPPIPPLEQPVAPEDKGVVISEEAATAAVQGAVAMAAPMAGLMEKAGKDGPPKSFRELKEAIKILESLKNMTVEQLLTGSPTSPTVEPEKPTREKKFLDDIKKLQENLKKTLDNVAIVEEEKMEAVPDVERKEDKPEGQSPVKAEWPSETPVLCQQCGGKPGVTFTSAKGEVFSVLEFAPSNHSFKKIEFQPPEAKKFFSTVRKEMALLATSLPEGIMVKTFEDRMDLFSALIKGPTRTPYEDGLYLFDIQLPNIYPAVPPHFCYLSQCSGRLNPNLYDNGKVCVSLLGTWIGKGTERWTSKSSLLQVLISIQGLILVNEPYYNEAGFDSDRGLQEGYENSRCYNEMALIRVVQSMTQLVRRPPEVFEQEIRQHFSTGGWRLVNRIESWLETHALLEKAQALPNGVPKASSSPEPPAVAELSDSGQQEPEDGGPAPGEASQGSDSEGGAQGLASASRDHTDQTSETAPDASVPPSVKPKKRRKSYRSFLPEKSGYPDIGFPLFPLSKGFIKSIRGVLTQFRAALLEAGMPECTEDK", "UniProt Q9BYN0": "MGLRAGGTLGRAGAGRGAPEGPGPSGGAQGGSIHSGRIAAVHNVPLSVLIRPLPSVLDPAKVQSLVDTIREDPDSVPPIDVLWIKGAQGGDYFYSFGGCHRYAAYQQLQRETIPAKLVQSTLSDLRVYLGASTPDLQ", "UniProt Q9H201": "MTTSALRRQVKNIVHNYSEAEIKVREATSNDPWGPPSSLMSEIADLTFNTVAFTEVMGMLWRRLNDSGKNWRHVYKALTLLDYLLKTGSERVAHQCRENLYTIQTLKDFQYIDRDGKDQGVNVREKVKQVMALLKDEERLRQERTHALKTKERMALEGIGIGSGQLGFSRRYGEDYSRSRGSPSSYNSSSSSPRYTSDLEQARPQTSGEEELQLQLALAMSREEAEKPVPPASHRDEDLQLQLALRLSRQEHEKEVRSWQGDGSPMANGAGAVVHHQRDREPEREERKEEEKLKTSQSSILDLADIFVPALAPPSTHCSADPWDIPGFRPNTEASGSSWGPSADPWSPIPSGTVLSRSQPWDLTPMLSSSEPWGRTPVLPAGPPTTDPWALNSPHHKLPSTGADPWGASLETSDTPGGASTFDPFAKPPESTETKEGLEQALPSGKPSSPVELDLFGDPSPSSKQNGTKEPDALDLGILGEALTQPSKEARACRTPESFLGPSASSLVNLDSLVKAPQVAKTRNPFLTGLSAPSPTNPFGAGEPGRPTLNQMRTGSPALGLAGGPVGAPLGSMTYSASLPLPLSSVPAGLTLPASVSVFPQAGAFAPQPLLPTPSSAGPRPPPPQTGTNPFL", "UniProt Q9BWK5": "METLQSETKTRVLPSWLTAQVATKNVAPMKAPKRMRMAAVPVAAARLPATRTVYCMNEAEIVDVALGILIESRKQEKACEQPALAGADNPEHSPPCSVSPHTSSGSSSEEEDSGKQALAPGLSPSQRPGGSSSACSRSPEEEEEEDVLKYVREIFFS"}, "source": "the supplement of paper PMC12819154", "about": "“High-throughput peptide-centric local stability assay extends protein–ligand identification to membrane proteins, tissues and bacteria” (Nature Structural & Molecular Biology, 2025)", "note": "Some of the results follow. Most entries show no effect beyond the scatter of the controls.", "data": [{"compound": "CN[C@@H]1C[C@H]2O[C@@](C)([C@@H]1OC)n1c3ccccc3c3c4c(c5c6ccccc6n2c5c31)C(=O)NC4 [staurosporine]", "assay": "log2 fold change of tryptic peptide abundance, ligand vs vehicle (limited proteolysis) (log2 ratio); higher = more trypsin-susceptible (destabilized)", "settings": "ligand concentration: 20 uM; sample: K562 cleared lysate; digestion: 4 min, 22 C (HT-PELSA RT4min, Orbitrap Astral)", "values": [{"target": "CARD11 (peptide sequence: TETIIYSR, peptide start residue: 1020) (UniProt Q9BXL7)", "log2 fold change": -0.672}, {"target": "ADNP (peptide sequence: NSSYGKVEGFWSK, peptide start residue: 1030) (UniProt Q9H2P0)", "log2 fold change": -0.476}, {"target": "UniProt Q9C0B9 (peptide sequence: ANGLSDPGPLADFREPAVR, peptide start residue: 152)", "log2 fold change": -0.471}, {"target": "SH3BGRL3 (peptide sequence: RIQYQLVDISQDNALRDEMR, peptide start residue: 32) (UniProt Q9H299)", "log2 fold change": -0.115}, {"target": "WNK1 (peptide sequence: SGSGGGSAKEPQEER, peptide start residue: 183) (UniProt Q9H4A3)", "log2 fold change": -0.254}, {"target": "SETD2 (peptide sequence: EMSQFIVQCLNPYR, peptide start residue: 2477) (UniProt Q9BYW2)", "log2 fold change": 0.559}, {"target": "FTO (peptide sequence: LFTVPWPVK, peptide start residue: 113) (UniProt Q9C0B1)", "log2 fold change": 0.326}, {"target": "MRPL4 (peptide sequence: HQTLVLTLPTVAFLEDK, peptide start residue: 256) (UniProt Q9BYD3)", "log2 fold change": 0.601}, {"target": "UNK (peptide sequence: SQEQPLLQPK, peptide start residue: 447) (UniProt Q9C0B0)", "log2 fold change": -0.12}, {"target": "ACBD3 (peptide sequence: DCHEEVYAGSHQYPGR, peptide start residue: 486) (UniProt Q9H3P7)", "log2 fold change": -0.411}, {"target": "PAPOLG (peptide sequence: MKEMSANTVLDSQR, peptide start residue: 1) (UniProt Q9BWT3)", "log2 fold change": 0.373}, {"target": "UniProt Q9GZP4 (peptide sequence: HEVTICNYEASANPADHR, peptide start residue: 182)", "log2 fold change": -0.198}, {"target": "UniProt Q9H0G5 (peptide sequence: NQEKPSNSESSLGAK, peptide start residue: 485)", "log2 fold change": -0.266}, {"target": "WNK3 (peptide sequence: KCIVLVTELMTSGTLK, peptide start residue: 295) (UniProt Q9BYP7)", "log2 fold change": -0.355}, {"target": "UniProt Q9BWT7 (peptide sequence: ILLDILEHDWR, peptide start residue: 316)", "log2 fold change": -0.0993}, {"target": "SHARPIN (peptide sequence: SPGNLTEREELAGSLAR, peptide start residue: 165) (UniProt Q9H0F6)", "log2 fold change": -0.181}, {"target": "PKIB (peptide sequence: TTQDQLEKPQNEEK, peptide start residue: 65) (UniProt Q9C010)", "log2 fold change": -0.409}, {"target": "POLR3F (peptide sequence: EGTVGSVDGHMK, peptide start residue: 257) (UniProt Q9H1D9)", "log2 fold change": 0.432}, {"target": "EIF5A2 (peptide sequence: IVEMSTSK, peptide start residue: 40) (UniProt Q9GZV4)", "log2 fold change": -0.123}, {"target": "FOXP1 (peptide sequence: TSLIMNPHASTNGQLSVHTPK, peptide start residue: 267) (UniProt Q9H334)", "log2 fold change": -0.221}, {"target": "MRPL13 (peptide sequence: VYSSHTGYPGGFR, peptide start residue: 76) (UniProt Q9BYD1)", "log2 fold change": 0.0834}, {"target": "SAP130 (peptide sequence: IQPDYPAER, peptide start residue: 445) (UniProt Q9H0E3)", "log2 fold change": -0.173}, {"target": "MRPL9 (peptide sequence: ENLELILTQSVENVGVR, peptide start residue: 92) (UniProt Q9BYD2)", "log2 fold change": 0.142}, {"target": "GTPBP4 (peptide sequence: LALGQINIAK, peptide start residue: 94) (UniProt Q9BZE4)", "log2 fold change": 0.116}, {"target": "VPS33B (peptide sequence: VENKPALSSNEQLCFLVRPR, peptide start residue: 69) (UniProt Q9H267)", "log2 fold change": -1.09}, {"target": "UniProt Q9BXW7 (peptide sequence: NVVTVDELR, peptide start residue: 153)", "log2 fold change": 0.265}, {"target": "CDC42EP4 (peptide sequence: SMGSHTTR, peptide start residue: 298) (UniProt Q9H3Q1)", "log2 fold change": 0.443}, {"target": "MAK16 (peptide sequence: SSCPLANSQYATIKEEK, peptide start residue: 42) (UniProt Q9BXY0)", "log2 fold change": 0.59}, {"target": "UBE2O (peptide sequence: DHSMEDPDK, peptide start residue: 409) (UniProt Q9C0C9)", "log2 fold change": 0.749}, {"target": "SRXN1 (peptide sequence: LVQSTLSDLR, peptide start residue: 117) (UniProt Q9BYN0)", "log2 fold change": 0.149}, {"target": "SIL1 (peptide sequence: LLVILATEQPLTAKK, peptide start residue: 273) (UniProt Q9H173)", "log2 fold change": 0.759}, {"target": "TOLLIP (peptide sequence: CSEEDLK, peptide start residue: 229) (UniProt Q9H0E2)", "log2 fold change": -0.178}, {"target": "MRPL1 (peptide sequence: EVKNEESEKEDA, peptide start residue: 314) (UniProt Q9BYD6)", "log2 fold change": -0.297}, {"target": "UniProt Q9H201 (peptide sequence: NIVHNYSEAEIK, peptide start residue: 12)", "log2 fold change": 0.0153}, {"target": "EGLN1 (peptide sequence: AKPPADPAAAASPCR, peptide start residue: 114) (UniProt Q9GZT9)", "log2 fold change": -0.221}, {"target": "CYREN (peptide sequence: METLQSETK, peptide start residue: 1) (UniProt Q9BWK5)", "log2 fold change": 0.24}, {"target": "CDADC1 (peptide sequence: HGPLGDNEER, peptide start residue: 66) (UniProt Q9BWV3)", "log2 fold change": -0.21}]}]}
